Part of at least one peptide drawing is inferred or uncertain, most often the ends. Ends that are not written are not given here.
Tested on: purified brush border membranes, supplemented with 100 μU/μL of PEP
Experiment: In vitro digestion with brush border membranes supplemented with PEP
Format: in vitro ADME, rat
Conditions: 100 μU/μL PEP, 1 or 4 hours
Description: In vitro Digestion of Gliadin Peptides. The in vitro digestion of each peptide was performed as follows: 75 μM (final concentration) of peptide was combined with 32 μL of 0.03 M HCl, pepsin (1:100 w pepsin/w peptide) and water to give a volume of 104 μL. The reaction was carried out for 30 minutes at 37° C. and was stopped by the addition of 40 μL of 1M sodium phosphate/sodium bisphosphate (pH 7.04). Chymotrypsin (1:100 w/w), trypsin (1:100.7 w/w), elastase (1:200 w/w), and carboxypeptidase A (1:100 w/w) were then added to give a final reaction volume of 168 μL. The reaction mixture was incubated at 37° C. for the indicated time and then stopped by heating at 90° C. for 5 minutes. Alternatively, the peptide ([…]) was combined with rat intestinal brush border enzymes, where the final concentration of brush border aminopeptidase N was 100 μU/μL. […] The reaction mixture was analyzed by reverse phase HPLC on a Vydac 218MS54 column (4.6 mm inner diameter×15 cm).
Given the stability of gliadin peptides to intestinal peptidases and initial results indicating PEP is active against α-gliadin epitopes, the efficacy of in vitro digestion with PEP was examined. To quantify the incremental effect of PEP, we incubated the gliadin peptides with purified brush border membranes, supplemented with 100 μU/μL of PEP for 1 or 4 hours at 37° C.

## FLQPQQPFPQQPQQPYPQQPQQPFPQ [Peptide P8]
  incremental (supplemental) effect of adding PEP on in vitro BBM digestion: dramatic supplemental effect
